The campaign covered roughly 140,000 compounds. About 4,300 (3.1%) were called active. The inconclusive results got no clear call from the source; some entries with a clear call stand among them for comparison.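 How the source made its calls: active means readout at or below -70, meaning at least 70% loss of cells showing the perinucleolar compartment, a nuclear body marking cancer cells; inconclusive means readout between -30 and a set limit; inactive means the rest.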
Experiment: High Content Assay for Compounds that inhibit the Assembly of the Perinucleolar Compartment;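 further: plate controls were DMSO wells for no effect and camptothecin positive control wells for full effect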
Details: PC3M PTB-GFP, PNC prevalence imaging, 16 h; at 10 µM; active compounds read low
Procedure, shortened: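 PC3M cells stably expressing PTB-GFP, 750–1000 cells/well, treated 16 h at 37 °C with compound (23 nl of library stock), in duplicate. After paraformaldehyde fixation and Hoechst stain, imaged at 20x; PNC prevalence scored by image analysis.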

Row | Compound | activity change (PNC), negative = inhibition
1 | Cc1cc(C)n(-c2nc(C)nc(N)n2)n1 | inconclusive: -37.6%
2 | CC1CCCCN1S(=O)(=O)c1ccc(N(C(=O)c2cnccn2)C(C(=O)NC2CCCCC2)c2cccs2)cc1 (stereo unspecified) | inactive: -25.5%
3 | CN1/C(=C\C(=O)Nc2cccc(Cl)c2)C(C)(C)c2ccccc21 | inconclusive: -64.9%
4 | CC1CCCCN1Cc1c(O)ccc2c(=O)c(-c3nc4ccccc4s3)c(N)oc12 (stereo unspecified) | inconclusive: -45.5%
5 | Cc1ccc(C(=O)N/C(=C/c2ccc(-c3cc(C(F)(F)F)ccc3Cl)o2)C(=O)NCc2cccnc2)cc1 | inconclusive: -56.5%
6 | O=C(OC(C(=O)NC1CCCC1)c1cccnc1)C1=Cc2ccccc2OC1 (stereo unspecified) | inactive: 44.9%
7 | Cc1[nH]c2ccc(C(=O)OCCN(C)C)cc2c1C | inconclusive: -59%
8 | COc1cccc(NC(=O)C2CC(=O)N(C)C(=Nc3cccc(F)c3)S2)c1 (stereo unspecified) | inactive: 6.59%
9 | CCN(CC)Cc1nc2c(c(=O)[nH]1)C1(CCCCC1)Cc1ccccc1-2 | inconclusive: -67.9%
10 | CC(C)c1ccc(S(=O)(=O)c2cn(Cc3ccc(F)cc3)c3cc4c(cc3c2=O)OCO4)cc1 | inconclusive: -77.8%
11 | O=C(CC1c2ccccc2Oc2ccccc21)Nc1ccccc1F | inconclusive: -37.1%
12 | CCS(=O)(=O)N1CCC(C(=O)NCc2ccccc2OC)CC1 | inconclusive: -36%
13 | CNC(=O)OC(C)CNS(=O)(=O)c1ccc(C)cc1 (stereo unspecified) | inconclusive: -50.7%
14 | CCN(CC)S(=O)(=O)c1ccc(N2CCOCC2)c(NC(=O)c2cccc3ccccc23)c1 | inconclusive: -55.9%
15 | C/C(=N\Nc1nc(N)cc(Cl)n1)c1cccc(N)c1 | inconclusive: -56.8%
16 | CCn1c(-c2cc(OC)c(OC)c(OC)c2)n[nH]c1=S | inconclusive: -38.6%
17 | Cn1cccc1C(C(=O)NC1CCCCC1)N(C(=O)Cc1cccs1)C1CC1 (stereo unspecified) | inactive: 16.5%
18 | COc1ccc(NC(=O)CC(C)c2ccccc2)c([N+](=O)[O-])c1 (stereo unspecified) | inconclusive: -35.2%
19 | O=C1N/C(=N/S(=O)(=O)c2ccccc2)S/C1=C/c1cccnc1 | inconclusive: -43.7%

Row | Compound | activity change (PNC), negative = inhibition
20 | CN(C)c1ccc(C(CNS(=O)(=O)c2ccc(F)c(F)c2)c2c[nH]c3ccccc23)cc1 (stereo unspecified) | inconclusive: -44.4%
21 | NC1=NC2(CCCCC2)N(c2cccc(Cl)c2)C(N)=N1 | inconclusive: -71.4%
22 | CC(=O)c1cccc(S(=O)(=O)NCC2CCCCC2)c1 | inconclusive: -67.7%
23 | N#CC1=C(N)NC(SCC(=O)Nc2ccccc2)=C(C#N)C12CCCCC2 | inactive: -0.598%
24 | O=C(ON=C1CCN(S(=O)(=O)c2ccccc2)CC1)c1ccc(Cl)cc1 | active: -100%
25 | CS(=O)(=O)NCc1nnc(SCC(=O)NC2CCCCC2)n1-c1ccc(F)cc1 | inconclusive: -31.5%
26 | COC(=O)C1=C(C)OC(N)=C(C#N)C1c1ccc(OC)c(CSc2ccccn2)c1 (stereo unspecified) | active: -87.2%
27 | O=C(c1ccc(Cl)c([N+](=O)[O-])c1)N1CCN(c2ccccn2)CC1 | inactive: 15%
28 | Cc1ccc(-n2c(CNc3ccc(F)cc3)nnc2SCC(N)=O)cc1 | inactive: 4.87%
29 | CCOC(=O)/C(=N\Nc1cc(Cl)ccc1Cl)N1CCN(C)CC1 | inactive: -27.3%
30 | CCC(=O)N1CCc2cc(S(=O)(=O)NCCC(=O)NC3CCCc4ccccc43)ccc21 (stereo unspecified) | inactive: -6.53%
31 | CCN1C(=O)c2cccc3c(NC(=O)c4ccccc4)ccc1c23 | inconclusive: -33.7%
32 | COc1ccc(Cc2nnc(N/N=C/c3ccc(O)cc3)[nH]c2=O)cc1OC | inconclusive: -77.6%
33 | CCOC(=O)/C=C(\C)Sc1cc(=O)oc2ccccc12 | inconclusive: -33.2%
34 | O=C(CCS(=O)(=O)c1cccc2nonc12)N1CCN(c2ccc(F)cc2)CC1 | inactive: -6.51%
35 | COc1cccc2cc(C(C)N(CCCN3CCOCC3)C(=O)Nc3ccccc3)oc12 (stereo unspecified) | inconclusive: -41.9%
36 | COc1ccc(C(=O)OCC(=O)Nc2ccc(Cl)c(C(F)(F)F)c2)c(OC)c1OC | inconclusive: -58.7%
37 | CCn1cc(/C=N/NC(=O)c2ccc3c(c2)OCO3)c(C)n1 | inconclusive: -33.8%
38 | CCOC(=O)N1CCN(C(=O)C2CC(=O)N(c3ccc(OC)cc3)C2c2ccc(OC)cc2)CC1 (stereo unspecified) | active: -100%

Row | Compound | activity change (PNC), negative = inhibition
39 | CCn1c(SCC(=O)Nc2sc3c(c2C#N)CCCC3)nnc1-c1ccco1 | inactive: 0%
40 | Cc1cccc2sc(NNC(=O)C3COc4ccccc4O3)nc12 (stereo unspecified) | inconclusive: -44.6%
41 | Nn1cnnc1SCC(=O)Nc1ccc(C2CCCCC2)cc1 | inactive: 17.8%
42 | C(/C=C/c1ccco1)=N/N1CCN(c2ccccc2)CC1 | inactive: -5.94%
43 | CC(=O)OCc1c(C(F)(F)F)nn(C)c1Sc1ccccc1 | inconclusive: -47.1%
44 | CC1(C)Cc2nc3sc4c(=O)n(Cc5ccccc5)cnc4c3cc2CS1 | inconclusive: -41.9%
45 | C/C(=N\OCC(=O)Nn1c(C)nc2ccccc2c1=O)c1ccccc1 | inconclusive: -58.6%
46 | C=CCNC(=O)COc1ccc(S(=O)(=O)NC2CCCCC2)cc1 | inconclusive: -57.8%
47 | Clc1ccc(-n2ncc3c(NCc4ccco4)ncnc32)cc1 | inactive: 7.52%
48 | COc1ccc(-n2c3nc4ccccc4nc3c3c(=N)oc(C)nc32)cc1 | inconclusive: -42.9%
49 | COc1ccccc1N1CCN(C(=O)C(=O)N/N=C/c2ccccc2F)CC1 | active: -114%
50 | O=C(CN1CCCCC1)Nc1ccccc1 | inactive: 28.9%
51 | COc1ccc(CN2C(=O)NC3(CCOc4ccccc43)C2=O)cc1F (stereo unspecified) | active: -80%
52 | CCC(C)NC(C(=O)Nc1ccc(Cl)c([N+](=O)[O-])c1)c1ccccc1 (stereo unspecified) | inactive: 22.8%
53 | O=C(NC(NC(=S)N1CCOCC1)C(Cl)(Cl)Cl)c1ccc(Cl)cc1 (stereo unspecified) | inconclusive: -55.4%
54 | Cc1csc2ncc(C(=O)Nc3ccon3)c(=O)n12 | inactive: 351%
55 | N#Cc1ccccc1NC(=O)C1CC(=O)N(c2ccc3c4c(cccc24)CC3)C1 (stereo unspecified) | inactive: -3.9%
56 | COc1ccc(C)cc1NC(=O)c1cc2c(CO)cnc(C)c2oc1=N | inactive: 36.4%

Fetched by compound from the entries so far (2):
Row | Compound | activity change (PNC), negative = inhibition
36 | COc1ccc(C(=O)OCC(=O)Nc2ccc(Cl)c(C(F)(F)F)c2)c(OC)c1OC | inconclusive: -58.7%
35 | COc1cccc2cc(C(C)N(CCCN3CCOCC3)C(=O)Nc3ccccc3)oc12 (stereo unspecified) | inconclusive: -41.9%

Source: PubChem BioAssay AID2417 (National Center for Advancing Translational Sciences (NCATS), 2010)
